Results as given in paper PMC10682186.

Chains of the proteins cited; added tags and fusions are not shown.
UniProt Q3TKT4: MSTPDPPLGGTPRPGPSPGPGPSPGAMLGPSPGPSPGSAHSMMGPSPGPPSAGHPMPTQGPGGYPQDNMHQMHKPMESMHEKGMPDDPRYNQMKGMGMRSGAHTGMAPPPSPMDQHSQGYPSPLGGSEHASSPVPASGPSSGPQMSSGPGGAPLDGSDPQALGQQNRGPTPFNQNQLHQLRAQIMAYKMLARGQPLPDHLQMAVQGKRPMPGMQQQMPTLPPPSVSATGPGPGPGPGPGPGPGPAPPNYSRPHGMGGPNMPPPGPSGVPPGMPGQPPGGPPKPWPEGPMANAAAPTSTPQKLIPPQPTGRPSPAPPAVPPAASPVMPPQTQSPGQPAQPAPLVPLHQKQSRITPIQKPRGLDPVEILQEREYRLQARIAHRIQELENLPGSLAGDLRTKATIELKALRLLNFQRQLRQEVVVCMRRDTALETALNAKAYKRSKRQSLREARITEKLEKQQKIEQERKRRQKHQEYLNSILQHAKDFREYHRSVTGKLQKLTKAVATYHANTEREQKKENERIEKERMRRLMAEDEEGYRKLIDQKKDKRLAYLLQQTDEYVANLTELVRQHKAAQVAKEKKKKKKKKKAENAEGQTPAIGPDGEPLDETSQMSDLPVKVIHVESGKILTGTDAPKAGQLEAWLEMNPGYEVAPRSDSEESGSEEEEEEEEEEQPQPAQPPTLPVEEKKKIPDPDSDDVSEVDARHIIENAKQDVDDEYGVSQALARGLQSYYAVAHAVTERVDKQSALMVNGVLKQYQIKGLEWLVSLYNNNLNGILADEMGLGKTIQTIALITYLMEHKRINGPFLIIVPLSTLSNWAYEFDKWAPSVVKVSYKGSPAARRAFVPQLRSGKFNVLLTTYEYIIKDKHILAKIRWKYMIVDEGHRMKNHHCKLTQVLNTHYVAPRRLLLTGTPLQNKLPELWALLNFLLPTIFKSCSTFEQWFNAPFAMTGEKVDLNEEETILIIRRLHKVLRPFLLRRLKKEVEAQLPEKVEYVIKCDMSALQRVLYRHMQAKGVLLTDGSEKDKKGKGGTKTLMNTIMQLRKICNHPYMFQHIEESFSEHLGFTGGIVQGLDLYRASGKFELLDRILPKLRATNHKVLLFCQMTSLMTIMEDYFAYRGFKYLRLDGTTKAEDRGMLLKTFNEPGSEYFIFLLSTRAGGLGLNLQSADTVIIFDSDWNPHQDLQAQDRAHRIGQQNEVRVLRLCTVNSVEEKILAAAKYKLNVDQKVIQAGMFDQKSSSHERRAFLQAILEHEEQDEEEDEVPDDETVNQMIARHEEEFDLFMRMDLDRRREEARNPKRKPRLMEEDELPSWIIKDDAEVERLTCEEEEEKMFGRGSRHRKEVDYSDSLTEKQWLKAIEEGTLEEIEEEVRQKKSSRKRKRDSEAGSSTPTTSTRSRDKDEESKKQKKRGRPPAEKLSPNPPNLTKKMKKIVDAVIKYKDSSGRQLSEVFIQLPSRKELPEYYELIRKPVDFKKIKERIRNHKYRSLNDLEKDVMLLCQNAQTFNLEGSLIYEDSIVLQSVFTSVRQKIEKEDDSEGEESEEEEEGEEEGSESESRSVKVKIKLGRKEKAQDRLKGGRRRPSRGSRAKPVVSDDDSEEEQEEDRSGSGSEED
UniProt Q8BSQ9: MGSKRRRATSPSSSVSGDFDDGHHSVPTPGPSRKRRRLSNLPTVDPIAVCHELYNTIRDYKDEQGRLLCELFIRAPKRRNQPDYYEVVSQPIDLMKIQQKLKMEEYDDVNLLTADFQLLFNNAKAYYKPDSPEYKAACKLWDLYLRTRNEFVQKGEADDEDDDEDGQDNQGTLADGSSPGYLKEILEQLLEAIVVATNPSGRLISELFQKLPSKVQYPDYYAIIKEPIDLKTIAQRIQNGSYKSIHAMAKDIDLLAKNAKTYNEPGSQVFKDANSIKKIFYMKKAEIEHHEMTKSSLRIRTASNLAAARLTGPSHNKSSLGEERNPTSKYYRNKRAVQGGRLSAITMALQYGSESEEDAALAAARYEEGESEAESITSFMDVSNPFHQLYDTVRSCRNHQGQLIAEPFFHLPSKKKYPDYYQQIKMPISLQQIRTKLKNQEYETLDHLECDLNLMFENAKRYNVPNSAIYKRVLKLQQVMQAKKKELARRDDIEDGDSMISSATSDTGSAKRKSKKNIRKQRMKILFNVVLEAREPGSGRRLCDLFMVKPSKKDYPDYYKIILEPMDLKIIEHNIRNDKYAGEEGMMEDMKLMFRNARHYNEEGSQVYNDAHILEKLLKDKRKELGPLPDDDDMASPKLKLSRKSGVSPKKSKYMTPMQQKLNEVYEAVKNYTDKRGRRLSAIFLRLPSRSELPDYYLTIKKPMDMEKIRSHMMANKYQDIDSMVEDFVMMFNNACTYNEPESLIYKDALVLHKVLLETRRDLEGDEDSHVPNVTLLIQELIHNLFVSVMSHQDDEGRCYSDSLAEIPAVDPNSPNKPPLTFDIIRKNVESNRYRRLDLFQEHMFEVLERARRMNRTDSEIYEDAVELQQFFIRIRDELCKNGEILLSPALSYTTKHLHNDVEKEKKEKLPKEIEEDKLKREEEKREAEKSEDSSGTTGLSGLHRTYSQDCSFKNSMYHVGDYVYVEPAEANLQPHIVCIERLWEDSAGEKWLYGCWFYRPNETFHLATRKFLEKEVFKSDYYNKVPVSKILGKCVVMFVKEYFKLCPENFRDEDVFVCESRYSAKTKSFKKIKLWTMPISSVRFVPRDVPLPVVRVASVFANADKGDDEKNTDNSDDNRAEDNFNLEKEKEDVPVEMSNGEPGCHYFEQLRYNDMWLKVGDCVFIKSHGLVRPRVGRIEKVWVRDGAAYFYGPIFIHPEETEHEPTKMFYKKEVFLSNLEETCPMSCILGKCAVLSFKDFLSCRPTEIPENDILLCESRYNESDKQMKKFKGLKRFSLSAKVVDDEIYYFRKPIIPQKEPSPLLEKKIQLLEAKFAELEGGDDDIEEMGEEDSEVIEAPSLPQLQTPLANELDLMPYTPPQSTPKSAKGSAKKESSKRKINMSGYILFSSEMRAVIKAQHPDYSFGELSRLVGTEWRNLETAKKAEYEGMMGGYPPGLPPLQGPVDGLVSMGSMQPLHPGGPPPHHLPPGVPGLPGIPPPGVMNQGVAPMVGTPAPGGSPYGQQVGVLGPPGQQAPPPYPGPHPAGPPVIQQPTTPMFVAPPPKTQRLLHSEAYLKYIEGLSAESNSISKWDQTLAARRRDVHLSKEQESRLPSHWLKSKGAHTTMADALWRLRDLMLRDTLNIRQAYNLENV
UniProt O54941: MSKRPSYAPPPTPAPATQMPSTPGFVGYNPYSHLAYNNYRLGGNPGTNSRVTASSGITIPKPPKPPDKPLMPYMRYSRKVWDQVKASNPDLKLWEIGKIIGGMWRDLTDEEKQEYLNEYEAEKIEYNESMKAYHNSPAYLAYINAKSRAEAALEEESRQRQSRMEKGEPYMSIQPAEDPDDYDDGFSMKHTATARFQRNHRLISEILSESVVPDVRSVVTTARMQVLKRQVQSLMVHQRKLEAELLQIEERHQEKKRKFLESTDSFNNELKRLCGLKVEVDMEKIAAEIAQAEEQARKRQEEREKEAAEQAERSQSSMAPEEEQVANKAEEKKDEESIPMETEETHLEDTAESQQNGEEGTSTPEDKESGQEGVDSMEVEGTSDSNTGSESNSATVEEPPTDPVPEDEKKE
UniProt P97496: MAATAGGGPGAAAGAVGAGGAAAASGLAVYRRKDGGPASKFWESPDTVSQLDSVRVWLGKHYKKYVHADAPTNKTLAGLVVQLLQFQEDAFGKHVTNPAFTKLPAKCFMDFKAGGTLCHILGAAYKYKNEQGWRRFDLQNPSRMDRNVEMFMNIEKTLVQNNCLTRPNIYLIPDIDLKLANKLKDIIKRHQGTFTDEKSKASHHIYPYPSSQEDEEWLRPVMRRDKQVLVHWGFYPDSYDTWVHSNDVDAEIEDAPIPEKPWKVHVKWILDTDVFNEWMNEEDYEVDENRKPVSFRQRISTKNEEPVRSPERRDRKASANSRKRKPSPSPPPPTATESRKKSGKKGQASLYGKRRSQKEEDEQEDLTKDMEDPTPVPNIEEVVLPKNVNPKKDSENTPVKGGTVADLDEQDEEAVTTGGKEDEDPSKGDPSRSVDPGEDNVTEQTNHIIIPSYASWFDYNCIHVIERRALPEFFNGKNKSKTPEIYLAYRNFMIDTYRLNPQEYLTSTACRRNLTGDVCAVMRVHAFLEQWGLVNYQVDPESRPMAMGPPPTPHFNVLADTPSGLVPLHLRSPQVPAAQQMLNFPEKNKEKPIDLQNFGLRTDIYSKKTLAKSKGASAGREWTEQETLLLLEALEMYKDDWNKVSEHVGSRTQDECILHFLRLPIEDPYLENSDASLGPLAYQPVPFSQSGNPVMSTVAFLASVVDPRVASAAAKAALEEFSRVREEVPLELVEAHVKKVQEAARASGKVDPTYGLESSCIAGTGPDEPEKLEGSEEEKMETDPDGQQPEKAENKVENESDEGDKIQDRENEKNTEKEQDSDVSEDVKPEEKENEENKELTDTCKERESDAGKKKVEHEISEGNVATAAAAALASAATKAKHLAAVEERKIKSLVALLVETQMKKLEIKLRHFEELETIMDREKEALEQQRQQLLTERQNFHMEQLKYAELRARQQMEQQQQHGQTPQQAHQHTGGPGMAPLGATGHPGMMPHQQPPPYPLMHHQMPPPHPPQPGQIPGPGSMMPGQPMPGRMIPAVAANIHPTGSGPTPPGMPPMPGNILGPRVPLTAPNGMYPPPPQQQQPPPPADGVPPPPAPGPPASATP

Molecular target: T1, PHF10A isoform of PHF10 (mouse (endogenous in brain)) (UniProt Q9D8M7)
T1 sequence: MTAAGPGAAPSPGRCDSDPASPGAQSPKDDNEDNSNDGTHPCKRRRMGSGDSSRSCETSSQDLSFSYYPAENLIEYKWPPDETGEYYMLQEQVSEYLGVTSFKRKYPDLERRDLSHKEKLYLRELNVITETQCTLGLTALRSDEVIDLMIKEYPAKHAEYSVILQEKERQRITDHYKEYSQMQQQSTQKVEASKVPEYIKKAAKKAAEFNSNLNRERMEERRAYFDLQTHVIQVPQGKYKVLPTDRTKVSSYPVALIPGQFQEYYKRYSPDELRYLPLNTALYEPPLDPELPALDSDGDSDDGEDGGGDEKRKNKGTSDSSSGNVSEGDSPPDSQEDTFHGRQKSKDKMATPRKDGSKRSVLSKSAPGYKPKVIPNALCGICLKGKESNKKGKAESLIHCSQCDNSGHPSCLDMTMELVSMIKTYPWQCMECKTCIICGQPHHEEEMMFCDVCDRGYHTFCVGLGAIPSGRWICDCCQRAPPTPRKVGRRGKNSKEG
Test: affinity purification with mass spectrometry; P1 and P56 mouse brain nuclear extracts fractionated on MonoS (high-salt PBAF or low-salt dcPBAF fractions) and Superose 6; immobilised anti-PHF10 antibodies; loaded in HEMG-150 with 0.1% NP-40, washed with HEMG-1000 (1 M NaCl) with 0.1% NP-40, eluted with 0.1 M glycine pH 2.5; SDS-PAGE bands identified by MALDI-TOF MS

binding, binds:
BRG1 (from UniProt Q3TKT4 1-1613)
BAF180/PBRM1 (from UniProt Q8BSQ9 1-1634)
BAF57 (from UniProt O54941 1-411)
BAF155 (from UniProt P97496 1-1104)
BAF60 (mouse (endogenous in brain))

No constants are given. Whether binding was seen depends on the method and setting. In cells and extracts the contact can be indirect. These calls come from enrichment with a bait or labelling near it, and not all partners need be listed.
